In publication PMC5716708:
These are yes or no findings as the source states them, for the method shown. For some assays here: Binding seen in cells or lysates may run through a third protein. Some binding calls cover weakened binding; strength is not graded here.

Chains of the proteins cited; added tags and fusions are not shown. Lines headed by an entry give the natural chain unless they say otherwise; changes in a name come on top. Residues count along the entry.
UniProt P07333: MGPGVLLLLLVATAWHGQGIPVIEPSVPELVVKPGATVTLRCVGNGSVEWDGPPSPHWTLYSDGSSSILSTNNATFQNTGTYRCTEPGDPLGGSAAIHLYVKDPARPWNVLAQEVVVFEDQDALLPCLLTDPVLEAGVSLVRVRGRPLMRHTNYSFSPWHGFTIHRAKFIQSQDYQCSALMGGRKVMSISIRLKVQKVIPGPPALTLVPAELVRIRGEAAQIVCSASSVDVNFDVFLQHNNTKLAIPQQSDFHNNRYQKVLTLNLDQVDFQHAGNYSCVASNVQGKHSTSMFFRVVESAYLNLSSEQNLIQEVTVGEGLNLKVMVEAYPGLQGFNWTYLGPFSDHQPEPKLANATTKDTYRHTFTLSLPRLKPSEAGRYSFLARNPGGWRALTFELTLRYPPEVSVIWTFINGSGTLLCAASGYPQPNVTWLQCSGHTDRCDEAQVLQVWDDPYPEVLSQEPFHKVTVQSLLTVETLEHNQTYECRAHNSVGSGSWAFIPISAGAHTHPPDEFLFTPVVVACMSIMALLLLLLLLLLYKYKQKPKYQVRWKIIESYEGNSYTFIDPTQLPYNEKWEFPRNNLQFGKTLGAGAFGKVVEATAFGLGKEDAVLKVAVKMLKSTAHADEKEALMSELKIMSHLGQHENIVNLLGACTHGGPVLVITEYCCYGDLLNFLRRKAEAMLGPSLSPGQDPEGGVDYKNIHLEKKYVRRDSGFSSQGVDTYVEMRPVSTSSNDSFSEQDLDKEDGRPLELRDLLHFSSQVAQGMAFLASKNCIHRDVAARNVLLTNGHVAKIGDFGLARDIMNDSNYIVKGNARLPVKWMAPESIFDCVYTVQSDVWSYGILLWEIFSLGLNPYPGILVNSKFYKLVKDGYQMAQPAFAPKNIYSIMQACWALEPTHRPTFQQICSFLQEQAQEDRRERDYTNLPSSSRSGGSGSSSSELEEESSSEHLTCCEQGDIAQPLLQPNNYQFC
CSF-1R in the cell lysates of Figure 7C: residues 20-972 of P07333

Legend:
[1] = molecular target: CSF-1R wild type (Full 1-972), pGilda bait (UniProt P07333); assay: two-hybrid; Matchmaker LexA system in yeast EGY48; wild type and deleted CSF-1R in pGilda as baits, wild type and deleted TSC-22 in pB42AD as preys; growth on plates lacking leucine and β-galactosidase on X-gal plates; 30°C
[2] = molecular target: CSF-1R expressed from pcDNA4-CSF-1R (UniProt P07333); assay: co-IP; HEK293a cells transfected with TSC-22 and CSF-1R plasmids; NP-40 lysis buffer (20mM Tris-HCl pH8.0, 150mM NaCl, 1% NP-40); IP with CSF-1R or TSC-22 antibody overnight at 4°C, protein A/G agarose; western blot
[3] = molecular target: CSF-1R in the cell lysates of Figure 7C (UniProt P07333); assay: co-IP; cell lysates with and without overexpressed TSC-22 (Figure 7C); IP with TSC-22 or CSF-1R antibody, immunoblot for CSF-1R, TSC-22 or CSF-1; NP-40 lysis buffer

Binder	binding [1]	also measured
TSC-22 deletion construct 1-52, pB42AD prey (domain or fragment, UniProt Q15714-2 1-52) MKSQWCRPVAMDLGVYQLRHFSISFLSSLLGTENASVRLDNSSSGASVVAID	binds	–
TSC-22 expressed from pcDNA4-TSC-22 (protein, UniProt Q15714-2 1-144) MKSQWCRPVAMDLGVYQLRHFSISFLSSLLGTENASVRLDNSSSGASVVAIDNKIEQAMDLVKSHLMYAVREEVEVLKEQIKELIEKNSQLEQENNLLKTLASPEQLAQFQAQLQTGSPPATTQPQGTTQPPAQPASQGSGPTA	–	binding [2]: binds
Colony stimulating factor-1 (CSF-1) in the cell lysates of Figure 7C (ligand, UniProt P09603 33-554) EEVSEYCSHMIGSGHLQSLQRLIDSQMETSCQITFEFVDQEQLKDPVCYLKKAFLLVQDIMEDTMRFRDNTPNAIAIVQLQELSLRLKSCFTKDYEEHDKACVRTFYETPLQLLEKVKNVFNETKNLLDKDWNIFSKNCNNSFAECSSQDVVTKPDCNCLYPKAIPSSDPASVSPHQPLAPSMAPVAGLTWEDSEGTEGSSLLPGEQPLHTVDPGSAKQRPPRSTCQSFEPPETPVVKDSTIGGSPQPRPSVGAFNPGMEDILDSAMGTNWVPEEASGEASEIPVPQGTELSPSRPGGGSMQTEPARPSNFLSASSPLPASAKGQQPADVTGTALPRVGPVRPTGQDWNHTPQKTDHPSALLRDPPEPGSPRISSLRPQGLSNPSTLSAQPQLSRSHSSGSVLPLGELEGRRSTRDRRSPAEPEGGPASEGAARPLPRFNSVPLTDTGHERQSEGSFSPQLQESVFHLLVPSVILVLLAVGGLLFYRWRRRSHQEPQRADSPLEQPEGSPLTQDDRQVELPV	–	binding [3]: binds

The next lines start with results.

binding [1]	Binder	also measured
binds	TSC-22 wild type (Full 1-144), pB42AD prey (protein, UniProt Q15714-2 1-144) MKSQWCRPVAMDLGVYQLRHFSISFLSSLLGTENASVRLDNSSSGASVVAIDNKIEQAMDLVKSHLMYAVREEVEVLKEQIKELIEKNSQLEQENNLLKTLASPEQLAQFQAQLQTGSPPATTQPQGTTQPPAQPASQGSGPTA	–
binds	QAQLQTGSPPATTQPQGTTQPPAQPASQGSGPTA (domain or fragment, UniProt Q15714-2 111-144) [TSC-22 deletion construct 111-144, pB42AD prey]	–
